No constants are given. Whether binding was seen depends on the method and setting. In cells and extracts the contact can be indirect. A yes stands for co-enrichment or nearness to the bait. Other partners may have been found.
Target: Histone cell cycle regulator A (HIRA) (human (endogenous in K562)) (UniProt P54198)
Assay: affinity purification with mass spectrometry; endogenous HIRA immunoprecipitated from K562 whole cell lysate (NETN buffer, protein G agarose), trypsin digest, LC-MS/MS (Orbitrap Eclipse); proteins also found in the IgG control were removed

By UniProt entry, the sequences of proteins in these tests, tags left out.
UniProt P54198: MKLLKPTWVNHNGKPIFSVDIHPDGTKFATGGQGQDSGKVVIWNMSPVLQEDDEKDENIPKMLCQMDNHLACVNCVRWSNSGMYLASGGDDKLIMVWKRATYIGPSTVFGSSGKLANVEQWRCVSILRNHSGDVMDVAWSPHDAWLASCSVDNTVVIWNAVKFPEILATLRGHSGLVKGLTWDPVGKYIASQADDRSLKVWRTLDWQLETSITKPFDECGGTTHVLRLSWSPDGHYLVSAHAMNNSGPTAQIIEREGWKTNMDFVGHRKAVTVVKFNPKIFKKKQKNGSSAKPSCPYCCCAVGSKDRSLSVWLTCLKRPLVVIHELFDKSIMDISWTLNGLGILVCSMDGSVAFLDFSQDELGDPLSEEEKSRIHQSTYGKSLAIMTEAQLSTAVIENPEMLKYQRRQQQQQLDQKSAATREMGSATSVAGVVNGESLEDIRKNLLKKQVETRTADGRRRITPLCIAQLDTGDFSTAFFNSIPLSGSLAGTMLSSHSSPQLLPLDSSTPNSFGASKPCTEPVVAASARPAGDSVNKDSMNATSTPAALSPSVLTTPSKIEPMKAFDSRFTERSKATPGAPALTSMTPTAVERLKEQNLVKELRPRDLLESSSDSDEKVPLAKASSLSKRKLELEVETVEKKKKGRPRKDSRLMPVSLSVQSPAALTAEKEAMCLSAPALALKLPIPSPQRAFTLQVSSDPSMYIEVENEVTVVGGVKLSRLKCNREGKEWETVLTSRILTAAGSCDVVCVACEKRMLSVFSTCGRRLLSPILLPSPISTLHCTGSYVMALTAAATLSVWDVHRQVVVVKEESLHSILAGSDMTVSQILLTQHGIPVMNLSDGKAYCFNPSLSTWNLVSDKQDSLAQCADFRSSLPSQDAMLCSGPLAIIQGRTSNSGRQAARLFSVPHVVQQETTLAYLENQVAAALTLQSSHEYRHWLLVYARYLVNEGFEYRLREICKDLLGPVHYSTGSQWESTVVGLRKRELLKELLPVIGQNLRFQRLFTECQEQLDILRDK
UniProt Q6ZU65: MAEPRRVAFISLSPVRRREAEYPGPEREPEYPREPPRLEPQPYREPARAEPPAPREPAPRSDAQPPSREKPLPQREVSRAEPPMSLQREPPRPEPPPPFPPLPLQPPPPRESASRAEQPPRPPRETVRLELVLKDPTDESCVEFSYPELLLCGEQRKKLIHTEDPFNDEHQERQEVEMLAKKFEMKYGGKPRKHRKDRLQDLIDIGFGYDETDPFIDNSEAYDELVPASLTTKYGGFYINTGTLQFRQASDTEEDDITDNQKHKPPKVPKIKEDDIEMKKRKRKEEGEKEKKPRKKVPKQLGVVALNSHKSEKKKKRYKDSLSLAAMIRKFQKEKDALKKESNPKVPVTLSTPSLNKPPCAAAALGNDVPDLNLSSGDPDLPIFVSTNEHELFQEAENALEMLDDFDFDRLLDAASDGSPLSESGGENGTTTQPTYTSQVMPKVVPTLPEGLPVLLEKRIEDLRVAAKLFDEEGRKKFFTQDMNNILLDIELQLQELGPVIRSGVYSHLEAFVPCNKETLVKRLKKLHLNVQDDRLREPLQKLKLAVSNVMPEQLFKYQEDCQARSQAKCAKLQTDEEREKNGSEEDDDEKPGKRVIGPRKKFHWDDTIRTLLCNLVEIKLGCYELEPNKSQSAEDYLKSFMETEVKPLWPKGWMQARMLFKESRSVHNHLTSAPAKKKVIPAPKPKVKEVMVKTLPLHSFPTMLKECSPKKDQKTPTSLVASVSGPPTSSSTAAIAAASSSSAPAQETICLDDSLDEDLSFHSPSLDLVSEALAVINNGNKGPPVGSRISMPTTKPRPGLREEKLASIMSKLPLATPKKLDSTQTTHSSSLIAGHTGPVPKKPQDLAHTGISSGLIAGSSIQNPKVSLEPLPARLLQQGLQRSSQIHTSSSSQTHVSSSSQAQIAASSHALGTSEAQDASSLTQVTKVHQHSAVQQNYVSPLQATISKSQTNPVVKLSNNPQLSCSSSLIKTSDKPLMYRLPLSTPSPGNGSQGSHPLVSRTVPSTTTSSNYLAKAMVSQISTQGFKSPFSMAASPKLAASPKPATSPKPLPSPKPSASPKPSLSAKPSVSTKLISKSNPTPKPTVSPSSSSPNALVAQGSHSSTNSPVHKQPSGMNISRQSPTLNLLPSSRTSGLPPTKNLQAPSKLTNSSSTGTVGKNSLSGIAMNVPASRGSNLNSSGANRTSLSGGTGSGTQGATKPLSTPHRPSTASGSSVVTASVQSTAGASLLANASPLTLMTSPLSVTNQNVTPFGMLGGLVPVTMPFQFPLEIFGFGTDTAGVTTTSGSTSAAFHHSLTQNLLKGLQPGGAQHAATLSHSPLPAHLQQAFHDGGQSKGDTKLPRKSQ
UniProt Q15652: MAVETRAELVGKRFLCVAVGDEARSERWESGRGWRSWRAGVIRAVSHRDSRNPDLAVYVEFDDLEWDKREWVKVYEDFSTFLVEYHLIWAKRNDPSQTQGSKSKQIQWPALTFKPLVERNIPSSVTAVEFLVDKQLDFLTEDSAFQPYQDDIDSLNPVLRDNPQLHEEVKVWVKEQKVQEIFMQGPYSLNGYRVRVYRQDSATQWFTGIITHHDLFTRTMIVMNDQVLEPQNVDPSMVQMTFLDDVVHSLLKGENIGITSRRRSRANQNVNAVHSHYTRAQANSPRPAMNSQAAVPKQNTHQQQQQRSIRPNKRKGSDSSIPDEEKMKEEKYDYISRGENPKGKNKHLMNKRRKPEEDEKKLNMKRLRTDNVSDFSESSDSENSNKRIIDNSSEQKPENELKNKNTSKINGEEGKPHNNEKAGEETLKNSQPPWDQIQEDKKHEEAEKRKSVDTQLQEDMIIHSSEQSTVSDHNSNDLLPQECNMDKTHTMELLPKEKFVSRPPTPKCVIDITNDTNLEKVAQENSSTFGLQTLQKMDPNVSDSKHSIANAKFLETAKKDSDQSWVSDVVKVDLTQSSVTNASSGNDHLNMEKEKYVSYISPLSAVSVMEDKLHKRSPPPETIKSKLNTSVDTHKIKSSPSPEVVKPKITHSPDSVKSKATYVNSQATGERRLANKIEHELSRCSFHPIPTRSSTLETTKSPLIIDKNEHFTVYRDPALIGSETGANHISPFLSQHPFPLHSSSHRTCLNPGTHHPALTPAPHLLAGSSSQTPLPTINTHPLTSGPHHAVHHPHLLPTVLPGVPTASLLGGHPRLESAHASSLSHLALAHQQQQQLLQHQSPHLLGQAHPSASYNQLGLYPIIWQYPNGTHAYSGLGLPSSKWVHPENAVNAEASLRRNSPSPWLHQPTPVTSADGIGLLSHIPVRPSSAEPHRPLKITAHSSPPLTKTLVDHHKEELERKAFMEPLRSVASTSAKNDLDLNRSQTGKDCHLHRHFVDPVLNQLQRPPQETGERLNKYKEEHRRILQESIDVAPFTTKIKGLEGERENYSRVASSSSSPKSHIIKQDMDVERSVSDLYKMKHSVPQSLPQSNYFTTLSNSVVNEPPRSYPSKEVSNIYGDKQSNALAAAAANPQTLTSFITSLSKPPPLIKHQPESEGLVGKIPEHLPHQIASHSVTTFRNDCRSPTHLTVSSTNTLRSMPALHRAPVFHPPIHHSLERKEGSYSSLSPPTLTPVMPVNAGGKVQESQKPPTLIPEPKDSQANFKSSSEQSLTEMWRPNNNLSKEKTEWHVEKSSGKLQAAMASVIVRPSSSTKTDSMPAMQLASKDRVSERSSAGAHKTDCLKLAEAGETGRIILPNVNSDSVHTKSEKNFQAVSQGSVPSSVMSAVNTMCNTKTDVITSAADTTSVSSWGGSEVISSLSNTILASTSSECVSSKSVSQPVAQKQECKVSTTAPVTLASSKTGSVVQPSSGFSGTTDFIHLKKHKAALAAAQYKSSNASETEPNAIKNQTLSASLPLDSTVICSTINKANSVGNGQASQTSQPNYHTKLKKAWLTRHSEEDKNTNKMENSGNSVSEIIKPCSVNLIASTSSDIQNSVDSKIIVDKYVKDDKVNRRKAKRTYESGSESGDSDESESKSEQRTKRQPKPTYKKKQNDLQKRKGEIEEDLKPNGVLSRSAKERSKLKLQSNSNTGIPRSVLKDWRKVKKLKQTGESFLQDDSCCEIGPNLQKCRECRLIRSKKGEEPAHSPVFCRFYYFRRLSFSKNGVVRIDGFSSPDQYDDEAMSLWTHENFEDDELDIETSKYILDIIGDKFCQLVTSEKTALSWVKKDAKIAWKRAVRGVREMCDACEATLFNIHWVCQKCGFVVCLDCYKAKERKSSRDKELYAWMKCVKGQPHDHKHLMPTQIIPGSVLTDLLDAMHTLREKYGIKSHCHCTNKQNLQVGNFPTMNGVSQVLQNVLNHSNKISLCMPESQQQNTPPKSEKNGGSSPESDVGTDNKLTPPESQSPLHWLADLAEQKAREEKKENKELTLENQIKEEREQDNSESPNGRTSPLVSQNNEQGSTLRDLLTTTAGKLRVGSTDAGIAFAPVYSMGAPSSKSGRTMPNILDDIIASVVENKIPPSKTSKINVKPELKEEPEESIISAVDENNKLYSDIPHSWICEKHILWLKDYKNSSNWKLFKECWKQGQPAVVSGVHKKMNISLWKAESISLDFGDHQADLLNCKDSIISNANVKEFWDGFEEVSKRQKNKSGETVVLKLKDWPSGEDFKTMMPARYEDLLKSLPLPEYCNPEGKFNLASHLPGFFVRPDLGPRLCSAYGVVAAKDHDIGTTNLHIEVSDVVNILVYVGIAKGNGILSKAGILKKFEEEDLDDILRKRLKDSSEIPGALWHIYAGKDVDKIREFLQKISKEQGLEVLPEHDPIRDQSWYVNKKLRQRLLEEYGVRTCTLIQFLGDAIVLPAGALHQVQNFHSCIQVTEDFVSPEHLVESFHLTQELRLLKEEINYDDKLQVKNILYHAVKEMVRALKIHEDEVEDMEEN
UniProt O60264: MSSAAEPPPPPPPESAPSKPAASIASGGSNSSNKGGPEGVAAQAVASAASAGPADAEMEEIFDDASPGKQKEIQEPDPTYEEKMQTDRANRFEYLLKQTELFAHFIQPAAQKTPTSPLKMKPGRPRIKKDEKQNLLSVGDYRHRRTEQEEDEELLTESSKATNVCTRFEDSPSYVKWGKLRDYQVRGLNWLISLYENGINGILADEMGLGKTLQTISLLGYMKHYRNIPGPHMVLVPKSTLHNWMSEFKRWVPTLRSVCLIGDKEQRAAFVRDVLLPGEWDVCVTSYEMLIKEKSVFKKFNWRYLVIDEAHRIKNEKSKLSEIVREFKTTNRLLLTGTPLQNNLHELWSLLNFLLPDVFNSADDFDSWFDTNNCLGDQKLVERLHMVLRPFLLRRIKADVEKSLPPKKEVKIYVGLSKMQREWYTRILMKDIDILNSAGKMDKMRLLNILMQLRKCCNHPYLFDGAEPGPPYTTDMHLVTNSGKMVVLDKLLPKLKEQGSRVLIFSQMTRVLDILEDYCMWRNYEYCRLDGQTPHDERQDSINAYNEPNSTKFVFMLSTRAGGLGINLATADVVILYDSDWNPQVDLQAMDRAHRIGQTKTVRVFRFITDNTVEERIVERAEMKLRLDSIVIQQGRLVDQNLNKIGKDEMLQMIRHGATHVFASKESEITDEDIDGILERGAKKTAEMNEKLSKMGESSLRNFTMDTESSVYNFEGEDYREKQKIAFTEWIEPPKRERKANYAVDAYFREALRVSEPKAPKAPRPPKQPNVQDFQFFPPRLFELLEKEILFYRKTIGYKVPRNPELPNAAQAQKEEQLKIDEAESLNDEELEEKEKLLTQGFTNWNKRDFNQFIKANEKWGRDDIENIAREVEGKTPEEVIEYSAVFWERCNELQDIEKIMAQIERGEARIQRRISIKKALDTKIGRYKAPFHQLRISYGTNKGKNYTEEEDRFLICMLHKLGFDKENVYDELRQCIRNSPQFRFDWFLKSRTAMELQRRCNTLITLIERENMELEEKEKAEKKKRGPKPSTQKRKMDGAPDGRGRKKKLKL

| binding | Substance |
| --- | --- |
| binds | UBN2 (from UniProt Q6ZU65 1-1347) |
| binds | H3K9me3 demethylase JMJD1C (from UniProt Q15652 1-2540) |
| binds | chromatin remodeler SMARCA5 (from UniProt O60264 1-1052) |

From paper PMC13226233
